## Primary screen of a compound library

Source: ChEMBL document CHEMBL3988442, “University of Dundee, Small-Polar-MMV Screening Library” (2021).

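Whole-cell assay for inhibitors of Mycobacterium tuberculosis growth, labelled Cornell in the record; the read-out is not stated. The concentration is filed as 10 mM, unlikely as a test dose, so the dose is not known. Higher means stronger inhibition (inferred from two other growth screens of the library). Of about 53,000 compounds tested this way, about 900 (1.7%) reached 50% or more in at least one test.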

Values are the deposited “Percent Effect”, in %.
The record does not define 0% and 100%; most values in the screen are far below 50% and negative numbers occur (in some assays of this library far below -100).
Compounds were drawn at random from those tested, without regard to their results.

Compound	effect
O=C(O)C(F)(F)F.O=C(O)C(F)(F)F.c1ccc(OCc2nnc3n2CCN(CC2CC2)C3)nc1	12.73%
N#CC1COCCN1S(=O)(=O)c1ccc2c(c1)CCC2 (stereo not given)	0.6274%
O=C(O)C(F)(F)F.[H][C@]12CC[C@@]3(N=C(CC)N(C)C3=O)[C@@]1([H])CN(Cc1ccc(C)cc1)C2	2.827%
Cn1cc(-c2ncc(C(=O)NCCCn3ccccc3=O)s2)cn1	-6.27%
Cc1ccc(CN(C)Cc2nc3ccc(F)cc3[nH]2)cn1	10.24%
COc1cccc(OCCNCc2ccccc2)c1.O=C(O)C(=O)O	-11.1%
Cc1cnn(C2CN(Cc3nc(-c4cccnc4)no3)C2)c1	3.209%
CC(c1ccccc1)N(C)C(=O)CN1CCCc2cccc(F)c21 (stereo not given)	42.06%
O=C1NCC2(CCCN(Cc3ccccc3F)C2)Oc2ccccc21 (stereo not given)	7.932%
O=C1N(CC2CCC2)CCCC12CCN(S(=O)(=O)c1cccnc1)C2 (stereo not given)	-28.84%
CNC(=O)c1cc2c(nc1NCC(C)C)CCN(c1ccncn1)CC2.O=C(O)C(F)(F)F	-5.632%
O=C(C1CCC2(CCN(Cc3cccnc3)CC2)CO1)N1CCCC1.O=C(O)C(F)(F)F.O=C(O)C(F)(F)F (stereo not given)	-28.97%
CC(C)CN1CCC2(Cc3ccccc3NC2=O)C1 (stereo not given)	3.629%
CN1CC(NC(=O)Cc2csc(C(C)(C)C)n2)CCC1=O (stereo not given)	-25.08%
CN(C)c1nccc(NCc2cc(-c3cccs3)n[nH]2)n1	3.989%
COc1ccc(-c2nnsc2C(=O)N2CCOCC2)cc1	32.41%
Cn1cc(C2CCCN2C(=O)Cn2ccc3ccccc32)cn1 (stereo not given)	-0.171%
COc1cccc(C(=O)N2CCc3nc(C4CCCN4)ncc3C2)c1.Cl (stereo not given)	-50.45%
CN(C)CC1(O)CCN(C(=O)Cc2ccc3c(c2)CCCC3)C1 (stereo not given)	27.93%
CCCNC(=O)Cn1cc(OC)c(=O)cc1CSc1nc(C)cc(C)n1	-22.34%
COCCc1noc(Cn2c(=O)[nH]c3ccccc32)n1	28.79%
CCN1CCN(C2CCN(Cc3nc(-c4ccoc4)no3)CC2)C1=O	10.49%
Cc1nc(C2CCCC2)sc1C(N)=O	-6.675%
[H][C@]12CC[C@]([H])(CN(Cc3nccs3)C1)N(Cc1c(C)noc1C)C2=O	-73.38%
O=C(O)C(F)(F)F.O=C(O)C(F)(F)F.O=C(O)C(F)(F)F.[H][C@@]12CN(CCOC)C[C@]1([H])[C@@H](OC)CCN2Cc1cccc(C)n1	30.95%
CN(CCCc1cnn(C)c1)C(=O)C1CCCN(C2CCCC2)C1 (stereo not given)	31.83%
COCc1ccc(CN[C@H]2C[C@@H](Cc3cc(CCO)on3)C2(C)C)o1	10.27%
CNC(=O)c1cccc(Nc2cnn(C)c2)c1	9.777%
N#Cc1ccc(CN2CCN(C(=O)CCn3cncn3)CC2)cc1	29.77%
Cc1csc(N2CCCN(C(=O)c3nccnc3N)CC2)n1	9.501%
O=C(NCC(O)c1cccc(F)c1)c1cccnc1O (stereo not given)	-5.021%
CN(Cc1ccco1)c1ccc(C(=O)NCCCc2ccccn2)cn1	14.04%
O=C(CS(=O)(=O)c1ccc(Cl)cc1)NC1CCCc2ccccc21 (stereo not given)	-16.17%
Cc1cccc(C)c1OCCC(=O)N1CCC(c2nncn2C)CC1	6.655%
COc1ccc(CCN(C)C(=O)c2cc(C(C)=O)c[nH]2)cc1OC	-7.568%
Cn1ccnc1CNCCNc1ncc(Cl)cc1Cl	0.6863%
O=C(O)C(F)(F)F.[H][C@@]12CCN(S(=O)(=O)C3CC3)[C@@]1([H])CCN2Cc1ccc(C)cc1	-11.21%
CCC(NC(=O)CC1CCN(C(C)C)CC1)c1cn2cccnc2n1 (stereo not given)	8.123%
[H][C@]12CC[C@@]3(N=C(c4ccccc4)NC3=O)[C@@]1([H])CN(C(=O)c1cccs1)C2	6.81%
O=C(c1ccco1)N1CCC(CSCc2ccco2)CC1	-26.41%
Cc1cc2ccccc2n1CCC(=O)N1CCCC2(CC1)CNC(=O)O2 (stereo not given)	-6.951%
Clc1cc(Cl)cc(OCCN2CCC(n3cncn3)CC2)c1	22.56%
CSc1ccc(CNC(=O)NCC(O)c2cccc(F)c2)cc1 (stereo not given)	6.77%
O=C(O)C(F)(F)F.[H][C@@]12CCN(C3CCCC3)C[C@@]1([H])[C@H](C(=O)NC1CCC1)CCO2	5.917%
Cc1cccc(NC(=O)[C@@H]2CCCN2Cc2ccc(C#N)cc2F)n1	12.34%
[H][C@]12CC[C@]([H])(CN(Cc3ccccc3)C1)N(C(=O)CCc1cnn(C)c1)C2	15.45%
O=C(O)C(F)(F)F.[H][C@@]12CN(Cc3cc(C)cc(C)c3)C[C@]1([H])OCCN2CC(=O)N(C)C	-2.684%
Cc1cnn(C2CN(CC(=O)NCCc3ccsc3)C2)c1	-15.89%
NC(=O)c1ccc(N2CCN(Cc3c(Cl)cncc3Cl)CC2)nc1	-5.531%
COCCCNS(=O)(=O)c1ccc2c(c1)NC(=O)C(C)O2 (stereo not given)	6.688%
Cn1cnc(S(=O)(=O)N2CCCC2)c1Cl	13.6%
Cc1c(C(=O)N2CC(Cc3nccc4ccn(C)c34)C2)cnn1C	11.12%
CC[C@@]1(O)CCN(CCCOc2ccc(C(N)=O)cc2)C[C@H]1O	12.2%
COc1c(CNC2CCCc3ccccc32)c(C(C)C)nn1C (stereo not given)	18.61%
NS(=O)(=O)CCNC(=O)c1nnn(-c2ccc(F)cc2)c1C1CC1	-7.622%
c1ccc(-c2nc3c(c(NCCn4ccnn4)n2)CCNCC3)nc1	-10.21%
Cc1cc(N2CCC(NS(C)(=O)=O)CC2)nc(C(C)C)n1	20.92%
CC1CN(CC(=O)NC2CCCC2)CCN1c1ccc2nncn2n1 (stereo not given)	18.9%
[H][C@]12CCC[C@@]1(CO)CN(C(=O)c1cc(C)nc3ccc(CC)cc13)C2	10.8%
COc1cccc(CN(C)C(=O)CSc2ccc3c(c2)OCCO3)c1	23.66%
CC[C@H](C)[C@@H](CO)NC(C)Cc1ccc(C)cc1 (stereo not given in full)	18.01%
COc1ccccc1C1CCN(C(=O)c2ncccc2OC(C)C)C1 (stereo not given)	-12.01%
CCNC(=O)[C@@H]1C[C@H](N)CN1C1CCN(c2ccccc2OC)CC1	23.18%
COc1ccc2nnc(CCCC(=O)Nc3nc4c(s3)CCC4)n2n1	12.31%
COCC(=O)N1CCC2(CC1)CN(CC1CC1)c1ccc(F)cc12	31.78%
CN1CCN(C(=O)c2cn(-c3ccc(C(F)(F)F)cn3)nn2)CC1	33.97%
Cc1cc2ccccc2n1CCC(=O)NCCS(C)(=O)=O	13.64%
O=C(O)C(F)(F)F.[H][C@@]12CN(CC)C[C@]1(C(=O)N(C)C)CCC21CCN(S(C)(=O)=O)CC1	0.934%
Cc1c(Cl)c(CN2CCCC2Cn2cncn2)nc2ccccc12 (stereo not given)	-28.19%
O=C(NCc1ccccc1CN1CCCC1)Nc1cccnc1	8.001%
Cc1ccc(C(=O)O)cc1CNC(=O)CN1CC[C@](C)(O)C(C)(C)C1	2.547%
Cc1ccc(C2(O)CCN(Cc3nc(C)n4ccccc34)CC2)nc1	6.323%
O=C(O)C(F)(F)F.O=C(O)C(F)(F)F.[H][C@]12CCN(C(C)C)C[C@@]1([H])CN(Cc1cccnc1OC)C2	6.133%
CC(C)Oc1cccc(CN2CCC(C(C)N3CCOCC3)CC2)c1 (stereo not given)	-17.02%
CC(=O)N1CC(=O)N(c2ccccc2)CC12CCN(Cc1ccoc1)C2.O=C(O)C(F)(F)F (stereo not given)	14.51%
COC(=O)CNC(=O)C1CCN(S(C)(=O)=O)CC1	-1.242%

Some entries from above, unchanged:

- Cc1ccc(C2(O)CCN(Cc3nc(C)n4ccccc34)CC2)nc1 | 6.323%
- CN(C)c1nccc(NCc2cc(-c3cccs3)n[nH]2)n1 | 3.989%
- Cc1nc(C2CCCC2)sc1C(N)=O | -6.675%
- CCN1CCN(C2CCN(Cc3nc(-c4ccoc4)no3)CC2)C1=O | 10.49%
- Cn1cc(-c2ncc(C(=O)NCCCn3ccccc3=O)s2)cn1 | -6.27%
- CN(Cc1ccco1)c1ccc(C(=O)NCCCc2ccccn2)cn1 | 14.04%
- Cc1c(C(=O)N2CC(Cc3nccc4ccn(C)c34)C2)cnn1C | 11.12%
- O=C(NCC(O)c1cccc(F)c1)c1cccnc1O (stereo not given) | -5.021%
- COc1cccc(OCCNCc2ccccc2)c1.O=C(O)C(=O)O | -11.1%